Measured values reported in the supplement of paper PMC6411743.
± gives the standard deviation of the averaged measurements. The list shows a part of the results, in another mix than the full data.

Sequences of proteins named here, by UniProt entry; tags and fusion partners are left off. A change or cut given only in a name is not applied to a line headed by its entry.
UniProt Q2KHR3: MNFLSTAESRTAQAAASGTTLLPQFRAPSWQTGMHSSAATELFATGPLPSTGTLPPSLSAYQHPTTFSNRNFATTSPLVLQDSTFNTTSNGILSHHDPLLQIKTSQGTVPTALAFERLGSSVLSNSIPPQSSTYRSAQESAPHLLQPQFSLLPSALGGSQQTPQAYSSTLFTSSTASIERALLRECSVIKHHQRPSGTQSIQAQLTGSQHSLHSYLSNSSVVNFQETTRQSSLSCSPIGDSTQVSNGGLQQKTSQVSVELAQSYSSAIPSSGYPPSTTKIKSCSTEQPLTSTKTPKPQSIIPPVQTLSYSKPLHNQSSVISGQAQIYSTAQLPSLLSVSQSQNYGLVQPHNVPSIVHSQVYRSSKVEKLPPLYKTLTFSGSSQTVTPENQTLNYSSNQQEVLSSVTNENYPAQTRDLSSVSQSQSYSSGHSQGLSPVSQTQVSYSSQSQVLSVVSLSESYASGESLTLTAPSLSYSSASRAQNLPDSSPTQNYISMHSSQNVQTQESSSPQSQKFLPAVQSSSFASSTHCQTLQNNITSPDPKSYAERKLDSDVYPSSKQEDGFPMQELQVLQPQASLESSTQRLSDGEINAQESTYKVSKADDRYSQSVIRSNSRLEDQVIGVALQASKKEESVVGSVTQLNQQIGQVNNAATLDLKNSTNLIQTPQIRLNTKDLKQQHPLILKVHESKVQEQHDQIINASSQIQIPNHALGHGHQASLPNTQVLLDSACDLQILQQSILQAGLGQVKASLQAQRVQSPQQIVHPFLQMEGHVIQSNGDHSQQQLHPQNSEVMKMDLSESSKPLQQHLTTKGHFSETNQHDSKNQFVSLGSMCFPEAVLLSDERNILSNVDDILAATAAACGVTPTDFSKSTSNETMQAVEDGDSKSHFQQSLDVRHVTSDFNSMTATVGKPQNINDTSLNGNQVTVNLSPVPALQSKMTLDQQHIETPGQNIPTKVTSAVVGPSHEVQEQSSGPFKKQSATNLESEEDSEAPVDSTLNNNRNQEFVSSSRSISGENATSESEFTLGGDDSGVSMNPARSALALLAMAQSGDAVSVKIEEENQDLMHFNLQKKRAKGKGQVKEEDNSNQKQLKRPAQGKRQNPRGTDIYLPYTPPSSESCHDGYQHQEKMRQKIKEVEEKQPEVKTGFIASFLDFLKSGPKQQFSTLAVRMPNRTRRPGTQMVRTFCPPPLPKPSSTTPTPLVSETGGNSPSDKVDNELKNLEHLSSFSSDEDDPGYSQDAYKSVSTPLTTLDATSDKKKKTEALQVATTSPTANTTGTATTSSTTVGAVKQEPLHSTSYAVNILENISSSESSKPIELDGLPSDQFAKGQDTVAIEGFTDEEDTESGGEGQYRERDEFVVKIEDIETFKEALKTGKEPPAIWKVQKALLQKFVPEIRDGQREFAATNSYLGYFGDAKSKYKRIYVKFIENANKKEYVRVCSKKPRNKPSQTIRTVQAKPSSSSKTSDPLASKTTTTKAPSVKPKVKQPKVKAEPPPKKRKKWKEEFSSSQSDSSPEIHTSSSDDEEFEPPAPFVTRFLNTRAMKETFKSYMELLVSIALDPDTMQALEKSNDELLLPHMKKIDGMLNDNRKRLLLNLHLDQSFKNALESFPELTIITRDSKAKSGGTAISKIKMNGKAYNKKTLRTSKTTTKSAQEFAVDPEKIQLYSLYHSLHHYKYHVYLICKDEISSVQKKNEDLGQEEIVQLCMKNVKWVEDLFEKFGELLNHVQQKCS
UniProt Q16718, whole entry: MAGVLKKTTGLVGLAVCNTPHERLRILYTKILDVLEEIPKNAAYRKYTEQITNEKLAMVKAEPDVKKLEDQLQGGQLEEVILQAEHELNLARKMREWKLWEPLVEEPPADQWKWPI
UniProt Q14980: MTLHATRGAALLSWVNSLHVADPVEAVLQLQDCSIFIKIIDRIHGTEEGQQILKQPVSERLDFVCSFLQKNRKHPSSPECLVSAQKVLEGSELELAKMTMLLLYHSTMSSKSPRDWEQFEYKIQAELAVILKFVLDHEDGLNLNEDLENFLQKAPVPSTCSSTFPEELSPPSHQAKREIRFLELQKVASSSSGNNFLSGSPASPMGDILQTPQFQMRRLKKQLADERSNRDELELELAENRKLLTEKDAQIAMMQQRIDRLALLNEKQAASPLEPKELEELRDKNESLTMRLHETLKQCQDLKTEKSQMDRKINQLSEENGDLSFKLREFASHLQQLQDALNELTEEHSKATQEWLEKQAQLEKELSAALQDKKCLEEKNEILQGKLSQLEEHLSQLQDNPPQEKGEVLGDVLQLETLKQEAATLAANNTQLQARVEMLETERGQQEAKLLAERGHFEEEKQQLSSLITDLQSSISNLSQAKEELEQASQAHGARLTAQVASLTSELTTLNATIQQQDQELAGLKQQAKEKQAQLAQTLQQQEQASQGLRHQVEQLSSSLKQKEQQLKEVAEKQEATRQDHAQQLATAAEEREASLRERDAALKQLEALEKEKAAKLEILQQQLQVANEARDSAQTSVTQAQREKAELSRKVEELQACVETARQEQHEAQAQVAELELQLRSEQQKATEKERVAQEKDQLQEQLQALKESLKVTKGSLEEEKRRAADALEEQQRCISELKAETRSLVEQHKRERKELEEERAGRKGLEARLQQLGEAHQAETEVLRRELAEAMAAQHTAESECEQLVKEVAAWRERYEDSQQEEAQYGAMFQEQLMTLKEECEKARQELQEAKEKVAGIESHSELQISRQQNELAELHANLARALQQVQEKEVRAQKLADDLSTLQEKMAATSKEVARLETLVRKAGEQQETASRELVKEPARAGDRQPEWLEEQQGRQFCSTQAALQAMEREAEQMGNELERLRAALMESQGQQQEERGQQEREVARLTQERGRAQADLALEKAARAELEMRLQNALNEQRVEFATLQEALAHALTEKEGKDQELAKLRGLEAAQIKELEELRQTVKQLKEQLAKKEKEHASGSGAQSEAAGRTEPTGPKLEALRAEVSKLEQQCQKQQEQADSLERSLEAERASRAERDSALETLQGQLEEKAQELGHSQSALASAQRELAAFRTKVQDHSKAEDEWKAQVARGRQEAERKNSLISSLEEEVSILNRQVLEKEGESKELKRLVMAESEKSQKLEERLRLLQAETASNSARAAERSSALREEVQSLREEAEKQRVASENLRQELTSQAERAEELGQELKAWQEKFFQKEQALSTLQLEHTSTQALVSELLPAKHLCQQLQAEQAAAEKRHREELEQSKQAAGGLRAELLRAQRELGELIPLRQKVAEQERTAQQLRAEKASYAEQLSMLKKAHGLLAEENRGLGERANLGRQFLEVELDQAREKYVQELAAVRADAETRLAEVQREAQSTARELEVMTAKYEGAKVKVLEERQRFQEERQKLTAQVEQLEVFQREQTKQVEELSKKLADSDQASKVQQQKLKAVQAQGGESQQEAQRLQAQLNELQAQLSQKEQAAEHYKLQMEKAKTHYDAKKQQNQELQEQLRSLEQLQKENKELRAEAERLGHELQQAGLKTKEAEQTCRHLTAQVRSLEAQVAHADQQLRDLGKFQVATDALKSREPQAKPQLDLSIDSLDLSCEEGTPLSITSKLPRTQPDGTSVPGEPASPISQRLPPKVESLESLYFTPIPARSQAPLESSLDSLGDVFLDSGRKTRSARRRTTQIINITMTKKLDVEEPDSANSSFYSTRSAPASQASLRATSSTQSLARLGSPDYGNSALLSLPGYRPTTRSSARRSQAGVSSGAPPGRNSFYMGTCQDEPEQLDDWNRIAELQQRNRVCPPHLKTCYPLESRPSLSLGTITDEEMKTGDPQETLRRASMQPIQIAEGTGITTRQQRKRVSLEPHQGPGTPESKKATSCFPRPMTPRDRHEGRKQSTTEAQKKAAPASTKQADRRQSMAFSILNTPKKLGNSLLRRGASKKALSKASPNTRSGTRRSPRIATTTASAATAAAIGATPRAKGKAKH
UniProt Q3B7T1: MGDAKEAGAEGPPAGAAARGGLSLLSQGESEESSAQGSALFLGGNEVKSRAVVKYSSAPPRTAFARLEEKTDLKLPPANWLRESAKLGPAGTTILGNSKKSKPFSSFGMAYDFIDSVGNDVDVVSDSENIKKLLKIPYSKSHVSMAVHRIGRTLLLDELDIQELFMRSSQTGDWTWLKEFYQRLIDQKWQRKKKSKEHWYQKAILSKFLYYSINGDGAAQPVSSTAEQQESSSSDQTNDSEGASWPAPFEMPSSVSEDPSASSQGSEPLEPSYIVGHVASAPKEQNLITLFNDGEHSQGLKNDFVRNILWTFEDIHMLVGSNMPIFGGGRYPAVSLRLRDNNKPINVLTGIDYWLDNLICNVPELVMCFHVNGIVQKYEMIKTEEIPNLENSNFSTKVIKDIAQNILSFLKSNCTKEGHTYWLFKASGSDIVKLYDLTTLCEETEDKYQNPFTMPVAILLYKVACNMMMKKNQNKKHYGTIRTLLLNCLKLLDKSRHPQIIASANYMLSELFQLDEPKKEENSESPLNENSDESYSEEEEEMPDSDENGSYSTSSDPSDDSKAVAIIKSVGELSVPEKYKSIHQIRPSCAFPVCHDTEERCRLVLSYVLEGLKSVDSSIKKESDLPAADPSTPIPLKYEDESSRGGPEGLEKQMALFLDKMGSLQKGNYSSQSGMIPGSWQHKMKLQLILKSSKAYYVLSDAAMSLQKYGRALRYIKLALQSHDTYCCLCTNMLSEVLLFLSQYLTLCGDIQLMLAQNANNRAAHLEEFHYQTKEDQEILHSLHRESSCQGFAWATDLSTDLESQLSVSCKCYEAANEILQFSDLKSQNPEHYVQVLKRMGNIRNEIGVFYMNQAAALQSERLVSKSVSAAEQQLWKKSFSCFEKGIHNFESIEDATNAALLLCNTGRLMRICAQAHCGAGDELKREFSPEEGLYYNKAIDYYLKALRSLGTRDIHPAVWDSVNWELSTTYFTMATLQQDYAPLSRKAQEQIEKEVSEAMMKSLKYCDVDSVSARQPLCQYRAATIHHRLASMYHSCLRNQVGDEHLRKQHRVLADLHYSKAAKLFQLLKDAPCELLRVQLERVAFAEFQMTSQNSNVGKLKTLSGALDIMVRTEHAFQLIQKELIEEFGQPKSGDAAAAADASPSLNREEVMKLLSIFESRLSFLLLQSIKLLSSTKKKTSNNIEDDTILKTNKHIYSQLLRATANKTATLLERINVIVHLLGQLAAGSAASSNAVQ
UniProt Q15427: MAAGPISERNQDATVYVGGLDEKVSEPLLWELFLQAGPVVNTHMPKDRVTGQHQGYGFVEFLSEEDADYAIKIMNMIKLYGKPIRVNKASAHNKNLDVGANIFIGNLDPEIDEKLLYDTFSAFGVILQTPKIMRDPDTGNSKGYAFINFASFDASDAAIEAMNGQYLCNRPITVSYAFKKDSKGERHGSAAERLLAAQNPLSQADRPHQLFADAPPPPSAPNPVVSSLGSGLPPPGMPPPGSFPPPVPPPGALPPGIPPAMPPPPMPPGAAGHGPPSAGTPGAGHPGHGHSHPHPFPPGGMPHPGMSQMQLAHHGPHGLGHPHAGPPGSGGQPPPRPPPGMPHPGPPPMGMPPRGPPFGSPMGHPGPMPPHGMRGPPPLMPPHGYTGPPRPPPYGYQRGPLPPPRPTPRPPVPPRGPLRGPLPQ
UniProt Q2TAL8: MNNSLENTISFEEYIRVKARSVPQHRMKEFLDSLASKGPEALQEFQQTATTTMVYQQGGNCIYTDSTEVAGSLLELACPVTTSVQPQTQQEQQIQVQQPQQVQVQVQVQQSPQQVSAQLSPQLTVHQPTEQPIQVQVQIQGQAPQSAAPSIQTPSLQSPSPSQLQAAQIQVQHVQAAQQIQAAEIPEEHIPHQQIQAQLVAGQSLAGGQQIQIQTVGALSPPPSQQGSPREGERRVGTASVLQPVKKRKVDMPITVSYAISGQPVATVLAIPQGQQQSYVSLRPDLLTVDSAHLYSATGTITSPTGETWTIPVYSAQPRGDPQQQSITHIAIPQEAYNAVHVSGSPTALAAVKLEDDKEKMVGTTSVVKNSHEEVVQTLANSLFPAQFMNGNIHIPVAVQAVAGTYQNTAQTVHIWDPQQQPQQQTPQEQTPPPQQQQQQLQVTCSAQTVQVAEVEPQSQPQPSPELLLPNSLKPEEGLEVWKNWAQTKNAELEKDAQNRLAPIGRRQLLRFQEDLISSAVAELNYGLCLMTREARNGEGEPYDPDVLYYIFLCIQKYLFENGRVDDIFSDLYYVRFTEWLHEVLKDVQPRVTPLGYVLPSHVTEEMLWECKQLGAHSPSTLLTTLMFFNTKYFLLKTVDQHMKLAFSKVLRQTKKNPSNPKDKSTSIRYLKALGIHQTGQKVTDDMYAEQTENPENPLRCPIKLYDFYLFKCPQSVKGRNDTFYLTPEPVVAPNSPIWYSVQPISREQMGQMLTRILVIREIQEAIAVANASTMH
UniProt Q3ZCW2: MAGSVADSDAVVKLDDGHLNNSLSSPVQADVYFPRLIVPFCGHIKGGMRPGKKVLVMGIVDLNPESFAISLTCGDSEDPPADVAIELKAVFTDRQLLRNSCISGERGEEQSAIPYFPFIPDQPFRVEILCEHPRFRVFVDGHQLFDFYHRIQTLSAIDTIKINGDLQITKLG

Compound: Nc1ncnc2c1ncn2[C@@H]1O[C@H](COP(=O)(O)OP(=O)(O)OP(=O)(O)O)[C@@H](O)[C@H]1O [adenosine triphosphate]
Assay: NP40-soluble protein abundance relative to vehicle (solubility fold change) (ratio); higher = more soluble protein in presence of ATP
Summary of the method: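 Jurkat crude lysate prepared with a Dounce homogeniser was treated at eight concentrations spanning 0.1 to 10 mM, 10 min at room temperature then 3 min at 37 °C. Solubilisation with 0.8% NP40 and benzonase and ultracentrifugation preceded TMT labelling of the supernatant for LC-MS/MS. Fold change against the detergent-processed vehicle was determined per replicate from vsn-normalised intensities, across three independent experiments.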

Target	NP40-soluble protein abundance (concentration: 1mM)	NP40-soluble protein abundance (concentration: 2mM)	NP40-soluble protein abundance (concentration: 4mM)	NP40-soluble protein abundance (concentration: 6mM)	NP40-soluble protein abundance (concentration: 8mM)	NP40-soluble protein abundance (concentration: 10mM)
UniProt Q15018	0.972 ± 0.04	0.961 ± 0.021	0.9491 ± 0.0046	0.945 ± 0.0082	0.939 ± 0.022	0.961 ± 0.045
UniProt Q14161-5|Q14161	0.985 ± 0.066	0.957 ± 0.035	0.935 ± 0.061	0.971 ± 0.075	0.931 ± 0.044	0.92 ± 0.027
CLPP (UniProt Q16740)	0.957 ± 0.031	0.954 ± 0.025	0.947 ± 0.025	0.954 ± 0.036	0.94 ± 0.025	0.938 ± 0.015
UniProt Q16401 and related entries	1.03 ± 0.043	0.986 ± 0.014	0.976 ± 0.017	0.9541 ± 0.0081	0.992 ± 0.026	0.967 ± 0.027
C5orf22 (UniProt Q49AR2)	0.952 ± 0.023	0.989 ± 0.015	1.01 ± 0.038	0.996 ± 0.03	0.939 ± 0.037	0.953 ± 0.044
NCAPD2 (UniProt Q15021)	0.9884 ± 0.0079	0.98 ± 0.031	0.979 ± 0.018	0.941 ± 0.025	0.978 ± 0.031	0.962 ± 0.04
UniProt Q16512 and related entries	0.978 ± 0.02	0.974 ± 0.018	0.958 ± 0.02	0.988 ± 0.041	0.953 ± 0.034	0.951 ± 0.024
HAGH (UniProt Q16775)	0.966 ± 0.062	0.968 ± 0.024	0.944 ± 0.054	0.923 ± 0.11	0.951 ± 0.023	0.9664 ± 0.009
UniProt Q147X3	0.926 ± 0.085	1 ± 0.068	1.02 ± 0.041	0.962 ± 0.071	0.982 ± 0.029	1.03 ± 0.025
TRIP13 (UniProt Q15645)	1.02 ± 0.074	1 ± 0.032	0.989 ± 0.061	0.933 ± 0.079	1.01 ± 0.031	0.994 ± 0.02
SKIV2L (UniProt Q15477)	1.02 ± 0.051	1.06 ± 0.038	1.14 ± 0.018	1.14 ± 0.022	1.25 ± 0.048	1.3 ± 0.061
UniProt Q3B7J2 and related entries	0.973 ± 0.11	0.973 ± 0.093	0.958 ± 0.086	0.911 ± 0.11	0.98 ± 0.021	1.05 ± 0.075
C2orf68 (UniProt Q2NKX9)	0.951 ± 0.047	0.943 ± 0.026	1.01 ± 0.043	0.978 ± 0.016	0.944 ± 0.042	0.94 ± 0.042
UniProt Q2KHR3 and related entries	1.06 ± 0.03	1.09 ± 0.044	1.04 ± 0.084	1 ± 0.087	1.03 ± 0.017	1.057 ± 0.01
ITPR3 (UniProt Q14573)	1.08 ± 0.036	1.04 ± 0.053	1.05 ± 0.02	1.02 ± 0.1	1.1 ± 0.086	1.1 ± 0.13
UniProt Q16718 and related entries	0.966 ± 0.13	0.912 ± 0.16	0.898 ± 0.14	0.977 ± 0.2	0.934 ± 0.14	0.862 ± 0.14
UniProt Q14980 and related entries	1.2 ± 0.091	1.18 ± 0.071	1.13 ± 0.072	1.17 ± 0.14	1.07 ± 0.067	1.07 ± 0.042
ZNF638 (UniProt Q14966)	1.01 ± 0.02	1.03 ± 0.021	1.04 ± 0.017	1.1 ± 0.015	1.059 ± 0.0043	1.093 ± 0.0014
UniProt Q16537 and related entries	1.02 ± 0.06	1.04 ± 0.05	1.01 ± 0.032	1.05 ± 0.011	0.987 ± 0.018	1.01 ± 0.075
DYNC1H1 (UniProt Q14204)	1.08 ± 0.12	0.997 ± 0.069	0.99 ± 0.054	0.933 ± 0.044	1.06 ± 0.011	0.992 ± 0.047
UniProt Q3B7T1	0.994 ± 0.022	0.99 ± 0.03	1.03 ± 0.033	0.986 ± 0.047	1.03 ± 0.034	1.04 ± 0.018
UniProt Q14558-2|Q14558	1.07 ± 0.14	1.02 ± 0.074	0.996 ± 0.076	0.97 ± 0.086	1.02 ± 0.07	1.02 ± 0.085
UniProt Q16829 and related entries	0.925 ± 0.033	0.945 ± 0.13	0.96 ± 0.052	0.955 ± 0.015	0.954 ± 0.0087	0.9079 ± 0.0045
EXOSC7 (UniProt Q15024)	1.06 ± 0.11	1.07 ± 0.07	1.12 ± 0.065	1.08 ± 0.086	1.2 ± 0.059	1.21 ± 0.073
UniProt Q2TAY7	1.13 ± 0.16	1.18 ± 0.076	1.17 ± 0.11	1.14 ± 0.16	1.29 ± 0.063	1.37 ± 0.089

Target	NP40-soluble protein abundance (concentration: 1mM)	NP40-soluble protein abundance (concentration: 2mM)	NP40-soluble protein abundance (concentration: 4mM)	NP40-soluble protein abundance (concentration: 6mM)	NP40-soluble protein abundance (concentration: 8mM)	NP40-soluble protein abundance (concentration: 10mM)
PSME4 (UniProt Q14997)	1.07 ± 0.1	0.999 ± 0.029	0.999 ± 0.052	0.912 ± 0.025	1.03 ± 0.028	0.944 ± 0.026
SF3B4 (UniProt Q15427)	1.1 ± 0.12	1.12 ± 0.032	1.13 ± 0.1	1.18 ± 0.094	1.18 ± 0.093	1.21 ± 0.081
UniProt Q15723 and related entries	0.915 ± 0.12	0.977 ± 0.051	0.972 ± 0.052	0.986 ± 0.1	0.97 ± 0.095	0.933 ± 0.086
UniProt Q15118 and related entries	1.32 ± 0.1	1.37 ± 0.18	1.39 ± 0.2	1.29 ± 0.1	1.41 ± 0.25	1.34 ± 0.18
UniProt Q15910 and related entries	1.18 ± 0.032	1.22 ± 0.042	1.23 ± 0.043	1.3 ± 0.11	1.31 ± 0.039	1.33 ± 0.053
UniProt Q4G0N4	0.991 ± 0.073	0.986 ± 0.035	0.971 ± 0.066	0.956 ± 0.11	0.993 ± 0.056	0.981 ± 0.05
NCOA6 (UniProt Q14686)	0.971 ± 0.083	0.958 ± 0.024	0.942 ± 0.026	0.991 ± 0.078	0.9368 ± 0.0043	0.964 ± 0.03
FRG1 (UniProt Q14331)	1.13 ± 0.015	1.14 ± 0.038	1.12 ± 0.05	1.21 ± 0.058	1.18 ± 0.061	1.18 ± 0.037
NCOA2 (UniProt Q15596)	0.948 ± 0.036	0.965 ± 0.015	0.964 ± 0.067	0.989 ± 0.022	0.9483 ± 0.0065	0.958 ± 0.03
DHX34 (UniProt Q14147)	1.29 ± 0.25	1.38 ± 0.21	1.28 ± 0.23	1.38 ± 0.14	1.34 ± 0.17	1.38 ± 0.17
QRICH1 (UniProt Q2TAL8)	0.995 ± 0.034	0.971 ± 0.013	0.967 ± 0.018	0.966 ± 0.028	0.9545 ± 0.0078	0.98 ± 0.027
RHEB (UniProt Q15382)	0.969 ± 0.029	0.9528 ± 0.0065	0.927 ± 0.022	0.97 ± 0.053	0.931 ± 0.056	0.9304 ± 0.0056
UniProt Q15043 and related entries	0.917 ± 0.069	0.963 ± 0.09	0.94 ± 0.072	0.958 ± 0.09	0.919 ± 0.075	0.896 ± 0.098
UniProt Q14CX7	1.04 ± 0.064	1.04 ± 0.06	1.04 ± 0.063	1.01 ± 0.086	1.03 ± 0.06	1.02 ± 0.042
UniProt Q27J81 and related entries	0.929 ± 0.054	0.958 ± 0.044	0.928 ± 0.058	0.927 ± 0.033	0.924 ± 0.056	0.937 ± 0.038
HNRNPUL2 (UniProt Q1KMD3)	1.03 ± 0.033	0.956 ± 0.059	0.939 ± 0.082	0.963 ± 0.17	0.979 ± 0.14	0.989 ± 0.14
UniProt Q16513 and related entries	0.983 ± 0.059	0.989 ± 0.054	1.01 ± 0.041	0.973 ± 0.079	1.01 ± 0.013	1.01 ± 0.071
LGALSL (UniProt Q3ZCW2)	1.02 ± 0.1	1.01 ± 0.12	1.02 ± 0.076	1.01 ± 0.046	0.99 ± 0.069	1.02 ± 0.062
UniProt Q15223	0.926 ± 0.087	0.91 ± 0.071	0.952 ± 0.038	0.983 ± 0.061	0.901 ± 0.053	0.88 ± 0.086
SLMAP (UniProt Q14BN4)	0.972 ± 0.053	0.971 ± 0.038	0.971 ± 0.037	1 ± 0.076	0.95 ± 0.033	0.966 ± 0.024
PGGHG (UniProt Q32M88)	0.974 ± 0.14	1.02 ± 0.1	0.983 ± 0.09	0.941 ± 0.037	1.07 ± 0.13	1.06 ± 0.12
UniProt Q16656 and related entries	0.955 ± 0.062	0.962 ± 0.054	0.933 ± 0.042	0.949 ± 0.067	0.913 ± 0.042	0.937 ± 0.028
TST (UniProt Q16762)	0.966 ± 0.076	0.966 ± 0.058	1 ± 0.04	0.937 ± 0.1	0.962 ± 0.025	0.949 ± 0.054
UniProt Q15542 and related entries	1.13 ± 0.088	1.14 ± 0.074	1.18 ± 0.092	1.18 ± 0.12	1.18 ± 0.13	1.2 ± 0.064

11 neighbouring records out of the list so far, for reference:
Target	NP40-soluble protein abundance (concentration: 1mM)	NP40-soluble protein abundance (concentration: 2mM)	NP40-soluble protein abundance (concentration: 4mM)	NP40-soluble protein abundance (concentration: 6mM)	NP40-soluble protein abundance (concentration: 8mM)	NP40-soluble protein abundance (concentration: 10mM)
UniProt Q14558-2|Q14558	1.07 ± 0.14	1.02 ± 0.074	0.996 ± 0.076	0.97 ± 0.086	1.02 ± 0.07	1.02 ± 0.085
UniProt Q16829 and related entries	0.925 ± 0.033	0.945 ± 0.13	0.96 ± 0.052	0.955 ± 0.015	0.954 ± 0.0087	0.9079 ± 0.0045
EXOSC7 (UniProt Q15024)	1.06 ± 0.11	1.07 ± 0.07	1.12 ± 0.065	1.08 ± 0.086	1.2 ± 0.059	1.21 ± 0.073
UniProt Q2TAY7	1.13 ± 0.16	1.18 ± 0.076	1.17 ± 0.11	1.14 ± 0.16	1.29 ± 0.063	1.37 ± 0.089
PSME4 (UniProt Q14997)	1.07 ± 0.1	0.999 ± 0.029	0.999 ± 0.052	0.912 ± 0.025	1.03 ± 0.028	0.944 ± 0.026
SF3B4 (UniProt Q15427)	1.1 ± 0.12	1.12 ± 0.032	1.13 ± 0.1	1.18 ± 0.094	1.18 ± 0.093	1.21 ± 0.081
UniProt Q15723 and related entries	0.915 ± 0.12	0.977 ± 0.051	0.972 ± 0.052	0.986 ± 0.1	0.97 ± 0.095	0.933 ± 0.086
UniProt Q15118 and related entries	1.32 ± 0.1	1.37 ± 0.18	1.39 ± 0.2	1.29 ± 0.1	1.41 ± 0.25	1.34 ± 0.18
UniProt Q15910 and related entries	1.18 ± 0.032	1.22 ± 0.042	1.23 ± 0.043	1.3 ± 0.11	1.31 ± 0.039	1.33 ± 0.053
UniProt Q4G0N4	0.991 ± 0.073	0.986 ± 0.035	0.971 ± 0.066	0.956 ± 0.11	0.993 ± 0.056	0.981 ± 0.05
NCOA6 (UniProt Q14686)	0.971 ± 0.083	0.958 ± 0.024	0.942 ± 0.026	0.991 ± 0.078	0.9368 ± 0.0043	0.964 ± 0.03
